# Measurements: publication PMC10907362
# T1: Flag-USP40 (in HLMVECs) (human) (UniProt Q9NVE5)
# T1 sequence: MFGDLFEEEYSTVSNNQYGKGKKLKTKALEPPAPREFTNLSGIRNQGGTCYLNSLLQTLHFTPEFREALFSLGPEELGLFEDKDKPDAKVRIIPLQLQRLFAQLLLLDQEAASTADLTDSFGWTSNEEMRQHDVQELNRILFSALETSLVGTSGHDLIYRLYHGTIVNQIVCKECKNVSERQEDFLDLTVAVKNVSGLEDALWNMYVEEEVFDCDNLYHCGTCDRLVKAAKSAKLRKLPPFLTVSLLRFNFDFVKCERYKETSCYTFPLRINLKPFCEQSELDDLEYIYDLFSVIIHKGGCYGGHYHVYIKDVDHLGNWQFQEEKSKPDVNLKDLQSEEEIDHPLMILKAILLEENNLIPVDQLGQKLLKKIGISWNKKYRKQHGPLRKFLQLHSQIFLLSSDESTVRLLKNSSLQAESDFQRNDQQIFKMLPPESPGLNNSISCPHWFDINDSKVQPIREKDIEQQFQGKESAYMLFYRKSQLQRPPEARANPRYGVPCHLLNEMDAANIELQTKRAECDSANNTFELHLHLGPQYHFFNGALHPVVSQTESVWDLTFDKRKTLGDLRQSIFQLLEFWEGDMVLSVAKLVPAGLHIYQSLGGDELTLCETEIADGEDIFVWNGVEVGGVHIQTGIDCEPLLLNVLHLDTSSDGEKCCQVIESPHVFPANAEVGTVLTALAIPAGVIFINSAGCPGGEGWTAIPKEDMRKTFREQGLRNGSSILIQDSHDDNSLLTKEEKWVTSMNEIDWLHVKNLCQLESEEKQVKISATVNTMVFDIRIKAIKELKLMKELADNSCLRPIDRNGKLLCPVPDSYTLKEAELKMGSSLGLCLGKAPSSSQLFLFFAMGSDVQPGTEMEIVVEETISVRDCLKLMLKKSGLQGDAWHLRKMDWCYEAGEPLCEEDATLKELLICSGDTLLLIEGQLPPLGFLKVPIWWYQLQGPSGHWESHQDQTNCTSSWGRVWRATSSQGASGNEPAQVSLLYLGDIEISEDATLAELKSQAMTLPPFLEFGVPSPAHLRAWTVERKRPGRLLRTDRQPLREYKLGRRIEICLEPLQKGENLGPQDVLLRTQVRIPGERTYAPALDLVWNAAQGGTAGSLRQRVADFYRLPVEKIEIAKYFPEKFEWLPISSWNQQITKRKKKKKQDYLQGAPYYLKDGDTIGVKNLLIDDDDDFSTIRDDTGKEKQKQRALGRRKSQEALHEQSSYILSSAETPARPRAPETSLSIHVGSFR
# B1: Isoform 2 of Leucine zipper protein 1 (protein, UniProt Q86V48-2 1-1026)
# chain: MAEFTSYKETASSRHLRFKLQSLSRRLDELEEATKNLQKAEDELLDLQDKVIQAEGSNSSMLAEIEVLRQRVLRIEGKDEEIKRAEDLCRLMKEKLEEEENLTRELKSEIERLQKRMAELEKLEEAFSRSKNDCTQLCLSLNEERNLTKKISSELEMLRVKVKELESSEDRLDKTEQSLASELEKLKSLTLSFVSERKYLNEKEKENEKLIKELTQKLEQNKKMNRDYTRNASNLERNDLRIEDGISSTLPSKESRRKGGLDYLKQVENETRNKSENEKNRNQEDNKVKDLNQEIEKLKTQIKHFESLEEELKKMKSKNNDLQDNYLSEQNKNKLLASQLEEIKLQIKKQKELENGEVEGEDAFLSSKGRHERTKFRGHGSEASVSKHTARELSPQHKRERLRNREFALNNENYSLSNRQVSSPSFTNRRAAKASHMGVSTDSGTQETKKTEDRFVPGSSQSEGKKSREQPSVLSRYPPAAQEHSKAWKGTSKPGTESGLKGKVEKTTRTFSDTTHGSVPSDPLGRADKASDTSSETVFGKRGHVLGNGSQVTQAANSGCSKAIGALASSRRSSSEGLSKGKKAANGLEADNSCPNSKAPVLSKYPYSCRSQENILQGFSTSHKEGVNQPAAVVMEDSSPHEALRCRVIKSSGREKPDSDDDLDIASLVTAKLVNTTITPEPEPKPQPNSREKAKTRGAPRTSLFENDKDAGMENESVKSVRASTNTMELPDTNGAGVKSQRPFSPREALRSRAIIKPVIVDKDVKKIMGGSGTETTLEKQKPVSKPGPNKVTSSITIYPSDSSSPRAAPGEALRERHTSTSNIQVGLAELTSVSNHVSSPFELSIHKHDITLQLAEAERMADGPLKDRPETVVSRSSIIIKPSDPVERNSHAPPAETIRWKSHSAPSEVGFSDARHVTVRNAWKSRRDLKSLEDPPTRIGKNVESTNSNAYTQRSSTDFSELEQPRSCLFEQGTRRVGPSSGDAPEPSSRRTQSSLTVSEVLTRRNRVGDTITVAAWNHSASMSS
# B2: Zyxin (protein, UniProt B4DQR8 1-485)
# chain: MGRVGEIPPPPPEDFPLPPPPLAGDGDDAEGALGGAFPPPPPPIEESFPPAPLEEEIFPSPPPPPEEEGGPEAPIPPPPQVSSGYVPPPVATPFSSKSSTKPAAGGTAPLPPWKSPSSSQPLPQVPAPAQSQTQFHVQPQPQPKPQVQLHVQSQTQPVSLANTQPRGPPASSPAPAPKFSPVTPKFTPVASKFSPGAPGGSGSQPNQKLGHPEALSAGTGSPQPPSFTYAQQREKPRVQEKQHPVPPPAQNQNQVRSPGAPGPLTLKEVEELEQLTQQLMQDMEHPQRQNVAVNELCGRCHQPLARAQPAVRALGQLFHIACFTCHQCAQQLQGQQFYSLEGAPYCEGCYTDTLEKCNTCGEPITDRMLRATGKAYHPHCFTCVVCARPLEGTSFIVDQANRPHCVPDYHKQYAPRCSVCSEPIMPEPGRDETVRVVALDKNFHMKCYKCEDCGKPLSIEADDNGCFPLDGHVLCRKCHTARAQT
# B3: Nuclear fragile X mental retardation-interacting protein 2 (protein, UniProt Q7Z417 1-695)
# chain: MEEKPGQPQPQHHHSHHHPHHHPQQQQQQPHHHHHYYFYNHSHNHHHHHHHQQPHQYLQHGAEGSPKAQPKPLKHEQKHTLQQHQETPKKKTGYGELNGNAGEREISLKNLSSDEATNPISRVLNGNQQVVDTSLKQTVKANTFGKAGIKTKNFIQKNSMDKKNGKSYENKSGENQSVDKSDTIPIPNGVVTNNSGYITNGYMGKGADNDGSGSESGYTTPKKRKARRNSAKGCENLNIVQDKIMQQETSVPTLKQGLETFKPDYSEQKGNRVDGSKPIWKYETGPGGTSRGKPAVGDMLRKSSDSKPGVSSKKFDDRPKGKHASAVASKEDSWTLFKPPPVFPVDNSSAKIVPKISYASKVKENLNKTIQNSSVSPTSSSSSSSSTGETQTQSSSRLSQVPMSALKSVTSANFSNGPVLAGTDGNVYPPGGQPLLTTAANTLTPISSGTDSVLQDMSLTSAAVEQIKTSLFIYPSNMQTMLLSTAQVDLPSQTDQQNLGDIFQNQWGLSFINEPSAGPETVTGKSSEHKVMEVTFQGEYPATLVSQGAEIIPSGTEHPVFPKAYELEKRTSPQVLGSILKSGTTSESGALSLEPSHIGDLQKADTSSQGALVFLSKDYEIESQNPLASPTNTLLGSAKEQRYQRGLERNDSWGSFDLRAAIVYHTKEMESIWNLQKQDPKRIITYNEAMDSPDQ
# B4: Isoform 2 of Highly divergent homeobox (protein, UniProt Q7Z353-2 1-632)
# chain: MSSKNSESGTATTGTSLSAPDITVRNVVNIARPSSQQSSWTSANNDVIVTGIYSPASSSSRQGTNKHTDTQITEAHKIPIQKTATKNDTEFQLHIPVQRQVAHCKNASLLLGEKTIILSRQTSVLNAGNSVFNHAKKNYGNSSVQASEMTVPQKPSVCHRPCKIEPVGIQRSYKPEHTGPALHNLCGQKPTIRDPYCRTQNLEIREVFSLAVSDYPQRILGGNAPQKPSSAEGNCLSIAMETGDAEDEYAREEELASMRAQIPSYSRFYESGSSLRAENQSTTLPGPGRNMPNSQMVNIRDMSDNVLYQNRNYHLTPRTSLHTASSTMYSNTNPLRSNFSPHFASSNQLRLSQNQNNYQISGNLTVPWITGCSRKRALQDRTQFSDRDLATLKKYWDNGMTSLGSVCREKIEAVATELNVDCEIVRTWIGNRRRKYRLMGIEVPPPRGGPADFSEQPESGSLSALTPGEEAGPEVGEDNDRNDEVSICLSEGSSQEEPNEVVPNDARAHKEEDHHAVTTDNVKIEIIDDEESDMISNSEVEQVNSFLDYKNEEVKFIENELEIQKQKYFKLQTFVRSLILAMKADDKEQQQALLSDLPPELEEMDFNHASLEPDDTSFSVSSLSEKNVSESL
# B5: Isoform 2 of RNA-binding protein 10 (protein, UniProt P98175-2 1-929)
# chain: MEYERRGGRGDRTGRYGATDRSQDDGGENRSRDHDYRDMDYRSYPREYGSQEGKHDYDDSSEEQSAEDSYEASPGSETQRRRRRRHRHSPTGPPGFPRDGDYRDQDYRTEQGEEEEEEEDEEEEEKASNIVMLRMLPQAATEDDIRGQLQSHGVQAREVRLMRNKSSGQSRGFAFVEFSHLQDATRWMEANQHSLNILGQKVSMHYSDPKPKINEDWLCNKCGVQNFKRREKCFKCGVPKSEAEQKLPLGTRLDQQTLPLGGRELSQGLLPLPQPYQAQGVLASQALSQGSEPSSENANDTIILRNLNPHSTMDSILGALAPYAVLSSSNVRVIKDKQTQLNRGFAFIQLSTIEAAQLLQILQALHPPLTIDGKTINVEFAKGSKRDMASNEGSRISAASVASTAIAAAQWAISQASQGGEGTWATSEEPPVDYSYYQQDEGYGNSQGTESSLYAHGYLKGTKGPGITGTKGDPTGAGPEASLEPGADSVSMQAFSRAQPGAAPGIYQQSAEASSSQGTAANSQSYTIMSPAVLKSELQSPTHPSSALPPATSPTAQESYSQYPVPDVSTYQYDETSGYYYDPQTGLYYDPNSQYYYNAQSQQYLYWDGERRTYVPALEQSADGHKETGAPSKEGKEKKEKHKTKTAQQIAKDMERWARSLNKQKENFKNSFQPISSLRDDERRESATADAGYAILEKKGALAERQHTSMDLPKLASDDRPSPPRGLVAAYSGESDSEEEQERGGPEREEKLTDWQKLACLLCRRQFPSKEALIRHQQLSGLHKQNLEIHRRAHLSENELEALEKNDMEQMKYRDRAAERREKYGIPEPPEPKRRKYGGISTASVDFEQPTRDGLGSDNIGSRMLQAMGWKEGSGLGRKKQGIVTPIEAQTRVRGSGLGARGSSYGVTSTESYKETLHKTMVTRFNEAQ
# Target: T1, Flag-USP40 (in HLMVECs) (human)
# Assay: affinity purification with mass spectrometry; Flag-USP40 immunoprecipitated from transfected HLMVECs with FLAG-M2 affinity gel; eluted under reducing conditions, SDS-PAGE, Coomassie, bands excised, in-gel trypsin digestion, LC-MS
row,Binder,binding
1,B1,binds
2,B2,binds
3,B3,binds
4,B4,binds
5,B5,binds

# These are yes or no findings as the source states them, for the method shown. In cells and extracts the contact can be indirect. A yes stands for co-enrichment or nearness to the bait. Other partners may have been found. Sequences can lack the tags named with a protein.
